No constants are given. Whether binding was seen depends on the method and setting. Binding can be weak; no strength is given. Tags and fused reporters may be left off the sequences shown. For some assays here: Binding seen in cells or lysates may run through a third protein.

Chains of the proteins cited; added tags and fusions are not shown. Lines headed by an entry give the natural chain unless they say otherwise; changes in a name come on top.
UniProt Q9M8T0: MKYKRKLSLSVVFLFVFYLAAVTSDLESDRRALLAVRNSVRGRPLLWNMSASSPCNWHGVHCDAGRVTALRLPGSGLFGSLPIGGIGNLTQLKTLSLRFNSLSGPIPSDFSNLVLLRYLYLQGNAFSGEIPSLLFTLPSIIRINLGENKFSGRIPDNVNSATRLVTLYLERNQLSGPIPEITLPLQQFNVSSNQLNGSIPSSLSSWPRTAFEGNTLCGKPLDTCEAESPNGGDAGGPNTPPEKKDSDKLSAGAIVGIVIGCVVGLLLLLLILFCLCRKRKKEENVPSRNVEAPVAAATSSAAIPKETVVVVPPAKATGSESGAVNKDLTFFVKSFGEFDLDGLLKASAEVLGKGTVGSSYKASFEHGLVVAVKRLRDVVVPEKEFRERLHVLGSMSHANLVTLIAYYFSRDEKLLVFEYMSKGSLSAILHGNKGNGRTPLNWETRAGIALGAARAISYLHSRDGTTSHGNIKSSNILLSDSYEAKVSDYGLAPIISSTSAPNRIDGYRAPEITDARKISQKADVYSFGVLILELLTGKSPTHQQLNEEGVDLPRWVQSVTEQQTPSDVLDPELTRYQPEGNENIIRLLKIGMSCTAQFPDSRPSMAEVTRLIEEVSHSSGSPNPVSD
UniProt Q9FMD7: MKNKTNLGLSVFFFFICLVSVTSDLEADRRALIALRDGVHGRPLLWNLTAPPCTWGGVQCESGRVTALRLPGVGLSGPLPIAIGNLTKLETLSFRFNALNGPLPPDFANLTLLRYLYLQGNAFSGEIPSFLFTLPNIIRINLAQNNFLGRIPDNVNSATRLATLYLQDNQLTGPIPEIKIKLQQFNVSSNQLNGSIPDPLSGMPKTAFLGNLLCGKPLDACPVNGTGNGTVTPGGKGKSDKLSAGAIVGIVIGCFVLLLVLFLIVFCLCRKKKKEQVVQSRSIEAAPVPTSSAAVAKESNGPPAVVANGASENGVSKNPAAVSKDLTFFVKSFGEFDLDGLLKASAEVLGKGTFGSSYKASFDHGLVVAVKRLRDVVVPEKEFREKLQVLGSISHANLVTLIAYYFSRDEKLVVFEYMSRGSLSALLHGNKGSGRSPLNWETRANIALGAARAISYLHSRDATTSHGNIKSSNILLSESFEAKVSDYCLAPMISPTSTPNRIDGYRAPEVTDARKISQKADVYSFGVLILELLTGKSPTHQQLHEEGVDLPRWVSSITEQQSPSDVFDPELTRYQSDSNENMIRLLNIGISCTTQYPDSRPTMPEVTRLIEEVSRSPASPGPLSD

Consider two molecules from paper PMC11606324.

Test [1] addresses KIN7-YFP^C (coding region of KIN7 in pSPYCE(M)) (Arabidopsis thaliana) (UniProt Q9M8T0). The experiment in a line: split reporter; BiFC in Nicotiana benthamiana leaves infiltrated with Agrobacterium GV3101; YFP^N (pSPYNE173) and YFP^C (pSPYCE(M)) fusions; confocal microscopy.
Test [2] addresses LRR1-YFP^C (coding region of LRR1 in pSPYCE(M)) (Arabidopsis thaliana) (UniProt Q9FMD7). The test is described as above.
The target in test [3] is KIN7-YFP^C (coding region of KIN7 in pSPYCE(M)) (Arabidopsis thaliana) (UniProt Q9M8T0). Briefly: split reporter; BiFC in transformed Arabidopsis protoplasts; YNE and YCE fusions; confocal microscopy, 60x objective.
For test [4], the target named is LRR1-YFP^C (coding region of LRR1 in pSPYCE(M)) (Arabidopsis thaliana) (UniProt Q9FMD7). The test is described as above.
The target of test [5] is LRR1-GST recombinant protein (coding region of LRR1 in pGEX-4T-1) (Arabidopsis thaliana) (UniProt Q9FMD7). The experiment in a line: pull-down; Glutathione beads with LRR1-GST incubated with His-tagged proteins in 1x PBS at 4 °C for 2 h; washed five times with 1x PBS, 0.1% Triton X-100; immunoblot with anti-GST or anti-His; both purified. In general terms: In western blotting, separated proteins are transferred to a membrane and probed.

B1: PYL6-YFP^N (coding region of PYL6 in pSPYNE173) (receptor, UniProt Q8S8E3 1-215)
chain: MPTSIQFQRSSTAAEAANATVRNYPHHHQKQVQKVSLTRGMADVPEHVELSHTHVVGPSQCFSVVVQDVEAPVSTVWSILSRFEHPQAYKHFVKSCHVVIGDGREVGSVREVRVVSGLPAAFSLERLEIMDDDRHVISFSVVGGDHRLMNYKSVTTVHESEEDSDGKKRTRVVESYVVDVPAGNDKEETCSFADTIVRCNLQSLAKLAENTSKFS
B1: the binding entry in test [1], in test [2], in test [3] and in test [4] was “binds” throughout.

B2: PYL6-His recombinant protein (coding region of PYL6 in pET28a) (receptor, UniProt Q8S8E3 1-215)
chain: MPTSIQFQRSSTAAEAANATVRNYPHHHQKQVQKVSLTRGMADVPEHVELSHTHVVGPSQCFSVVVQDVEAPVSTVWSILSRFEHPQAYKHFVKSCHVVIGDGREVGSVREVRVVSGLPAAFSLERLEIMDDDRHVISFSVVGGDHRLMNYKSVTTVHESEEDSDGKKRTRVVESYVVDVPAGNDKEETCSFADTIVRCNLQSLAKLAENTSKFS
Turning to B2, the binding entry in test [5] was “binds”.
